Measured data: PubChem BioAssay AID1259308 (NCATS, 2017)
Shown is a random part of about 59,000 reagents tested. About 1,510 of them (2.6%) were called active. 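Calls use total luciferase alone and ignore viability, so some active siRNAs may act by altering cell number.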 The numbers tell different reagents against one gene apart. Not all columns of the deposit are shown.

Screen: 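Genes whose loss raises luciferase production in HEK293 cells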 (primary screen)
Cell system: human HEK293 embryonic kidney cells stably expressing firefly luciferase (HEK-CMV-Luc2-Hygro)
Reagent: single siRNA against human genes, 0.8 pmol siRNA per well
Time to read-out: 72 h
Read-out: 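Reporter luminescence and viable-cell signal on separate replicate plates, given as percent of non-targeting control and median/MAD z-scores, plus per-cell luciferase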
Scale: total luciferase, z-score: higher = more reporter protein produced
Rule for the call: 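An siRNA counts as active if its total luciferase robust z-score exceeds 3; genes with two or more such siRNAs out of three were retested with fresh siRNAs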
Meaning of the calls: active = raised luciferase; inactive = no rise

| Gene | reagent no. | total luciferase, z-score | outcome |
| --- | --- | --- | --- |
| OR52R1 | 1 | -0.316 | inactive |
| OR52R1 | 2 | -0.22 | inactive |
| OR52R1 | 3 | -0.903 | inactive |
| STEEP1 | 1 | 1.76 | inactive |
| STEEP1 | 2 | -0.708 | inactive |
| STEEP1 | 3 | 0.381 | inactive |
| GUCY2D | 1 | 0.248 | inactive |
| GUCY2D | 2 | -0.372 | inactive |
| GUCY2D | 3 | 0.732 | inactive |
| PCDHA8 | 1 | 1.78 | inactive |
| PCDHA8 | 2 | 0.0755 | inactive |
| PCDHA8 | 3 | -0.393 | inactive |
| DZIP3 | 1 | -0.542 | inactive |
| DZIP3 | 2 | 0.19 | inactive |
| DZIP3 | 3 | 1.29 | inactive |
| GP1BB | 1 | 0.131 | inactive |
| GP1BB | 2 | -0.705 | inactive |
| GP1BB | 3 | 2.06 | inactive |
| UBE2J2 | 1 | 0.116 | inactive |
| UBE2J2 | 2 | 0.137 | inactive |
| UBE2J2 | 3 | -1.16 | inactive |
| RPL37AP8 | 1 | -0.519 | inactive |
| RPL37AP8 | 2 | 0.0882 | inactive |
| RPL37AP8 | 3 | 1.04 | inactive |
| TSC22D2 | 1 | -1.1 | inactive |
| TSC22D2 | 2 | 0.307 | inactive |
| TSC22D2 | 3 | -2.03 | inactive |
| GORASP2 | 1 | -0.189 | inactive |
| GORASP2 | 2 | -0.0538 | inactive |
| GORASP2 | 3 | 2.47 | inactive |
| ZBP1 | 1 | 0.953 | inactive |
| ZBP1 | 2 | -0.0416 | inactive |
| ZBP1 | 3 | 1.98 | inactive |
| CLYBL | 1 | 0.821 | inactive |
| CLYBL | 2 | -1.05 | inactive |
| CLYBL | 3 | -0.971 | inactive |
| CBLN3 | 1 | -0.276 | inactive |
| CBLN3 | 2 | 1.28 | inactive |
| CBLN3 | 3 | 2.64 | inactive |
| ZNF688 | 1 | 0.185 | inactive |
| ZNF688 | 2 | 0.755 | inactive |
| ZNF688 | 3 | -0.362 | inactive |
| TRE17 (retired record) | 1 | -0.332 | inactive |
| TRE17 (retired record) | 2 | -0.438 | inactive |
| TRE17 (retired record) | 3 | 1.05 | inactive |
| SERPINA3 | 1 | 0.219 | inactive |
| SERPINA3 | 2 | 0.628 | inactive |
| SERPINA3 | 3 | -0.0759 | inactive |
| CACNA1A | 1 | 0.138 | inactive |
| CACNA1A | 2 | 3.03 | active |
| CACNA1A | 3 | -0.921 | inactive |
| RPS6KC1 | 1 | 0.837 | inactive |
| RPS6KC1 | 2 | 0.161 | inactive |
| RPS6KC1 | 3 | 0.747 | inactive |
| TSTD2 | 1 | -0.349 | inactive |
| TSTD2 | 2 | 1.58 | inactive |
| TSTD2 | 3 | -1.44 | inactive |
| SLIT3-AS1 | 1 | -0.763 | inactive |
| SLIT3-AS1 | 2 | -0.103 | inactive |
| SLIT3-AS1 | 3 | -0.0235 | inactive |
| GCG | 1 | 1.17 | inactive |
| GCG | 2 | 0.235 | inactive |
| GCG | 3 | -0.671 | inactive |
| PRPS1 | 1 | -0.747 | inactive |
| PRPS1 | 2 | -0.811 | inactive |
| PRPS1 | 3 | 0.165 | inactive |
| CIAO2A | 1 | 0.45 | inactive |
| CIAO2A | 2 | -2.05 | inactive |
| CIAO2A | 3 | 1.07 | inactive |
| B3GALNT1 | 1 | -0.0407 | inactive |
| B3GALNT1 | 2 | -1.33 | inactive |
| B3GALNT1 | 3 | -1.75 | inactive |
| RABEP1 | 1 | -1.23 | inactive |
| RABEP1 | 2 | -0.523 | inactive |
| RABEP1 | 3 | 0.292 | inactive |

Records above called active, once more:
| Gene | reagent no. | total luciferase, z-score | outcome |
| --- | --- | --- | --- |
| CACNA1A | 2 | 3.03 | active |
